Reference: patent US6710062B1, “Cyanomethylene compounds, process for producing the same, and agricultural or horticultural bactericide” (Otsuka Chemical Co., Ltd., priority 1999, dated 2004)
Some results were stated once for a whole list of compounds, not compound by compound.

System: cucumber powdery mildew
Assay: Fungicidal test for control of cucumber powdery mildew (Test Example 1)
Assay type: in vivo
Conditions: sample solution 200 ppm spread over potted cucumber, spores sprayed, checked after 10 days, compared with untreated plant

Compound | percent disease control value [%]
N#CC(Sc1ccccc1)=C1SCCN1c1ccccc1 [Compound 2, 2-Phenylthio-2-(3-phenyl-1,3-thiazolidine-2-yliden)acetonitrile] | ≥ 50
N#CC(Sc1ccccc1)=C1SCCN1c1ccccc1C(F)(F)F [Compound 31] | ≥ 50
N#CC(Sc1ccccc1)=C1SCCN1c1c(Cl)cccc1Cl [Compound 12] | ≥ 50
COc1cccc(SC(C#N)=C2SCCN2c2ccccc2)c1 [Compound 45] | ≥ 50
N#CC(Sc1ccccc1)=C1SCCN1c1ccccc1Cl [Compound 3] | ≥ 50
N#CC(Sc1ccccc1Cl)=C1SCCN1c1ccccc1Cl [Compound 23] | ≥ 50
N#CC(Sc1cccc(Cl)c1)=C1SCCN1c1ccccc1 [Compound 18] | ≥ 50
N#CC(Sc1ccccc1Cl)=C1SCCN1c1ccccc1 [Compound 22] | ≥ 50
COc1ccccc1N1CCSC1=C(C#N)Sc1ccccc1 [Compound 32] | ≥ 50
Cc1ccccc1N1CCSC1=C(C#N)Sc1ccccc1 [Compound 33] | ≥ 50

System: powdery mildew pathogen (Erysiphe graminis f. sp. tritilci)
Assay: Fungicidal test for controlling of wheat powdery mildew (Test Example 2)
Assay type: in vivo
Conditions: test solution 200 ppm sprayed on wheat seedlings (Shirasagi), conidia sprinkled, 18° C. for 7 days, first leaf scored 0-10, compared with untreated plants

Compound | percent disease control value [%]
COc1cccc(N2CCSC2=C(C#N)Sc2ccccc2)c1 [Compound 42] | ≥ 50
